# Measurements from the supplement of paper PMC8728848.
# This is one part of the list.
# B1: FGF1 (Homo sapiens), P05230 (protein)
# chain: MAEGEITTFTALTEKFNLPPGNYKKPKLLYSNGGHFLRILPDGTVDGTRDRSDQHIQLQLSAESVGEVYIKSTETGQYLAMTDGLLYGSQTPNEECLFLERLEENHYNTYISKHAEKNWFVGLKKNGSCKRGPRTHYGQAILFLPLPASSED
# Experiments:
# Test in all cases: glycan array binding signal (z-score within array); higher = stronger binding
# Details in all cases: glycan notation: IUPAC condensed, linker removed
# [1] = biological target: Gal(b1-4)GlcNAc(b1-2)Man(a1-6)[GlcNAc(b1-2)Man(a1-3)]Man(b1-4)GlcNAc(b1-4)GlcNAc
# Procedure, shortened: (§1)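 Glycan array data came from 3228 arrays in the Consortium for Functional Glycomics database, and only arrays with an available protein sequence were kept. Glycan names were put into IUPAC-condensed notation, and columns mapping to the same glycan were averaged. The binding signal is a within-array Z-score, averaged across arrays of one protein sequence run at different concentrations or buffers and across linkers. A negative Z-score can be read as non-binding.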
# [2] = biological target: Gal(b1-4)GlcNAc(b1-2)Man(a1-6)[Man(a1-3)]Man(b1-4)GlcNAc(b1-4)GlcNAc
# Procedure, shortened: as §1
# [3] = biological target: Gal(b1-4)GlcNAc(b1-2)[Gal(b1-4)GlcNAc(b1-4)]Man(a1-3)[Gal(b1-4)GlcNAc(b1-2)Man(a1-6)]Man(b1-4)GlcNAc(b1-4)GlcNAc
# Procedure, shortened: as §1
# [4] = biological target: Gal(b1-4)GlcNAc(b1-2)[Gal(b1-4)GlcNAc(b1-4)]Man(a1-3)[Gal(b1-4)GlcNAc(b1-2)[Gal(b1-4)GlcNAc(b1-6)]Man(a1-6)]Man(b1-4)GlcNAc(b1-4)GlcNAc
# Procedure, shortened: as §1
# [5] = biological target: Gal(b1-4)GlcNAc(b1-2)[Gal(b1-4)GlcNAc(b1-4)]Man(a1-3)[GlcNAc(b1-4)][Gal(b1-4)GlcNAc(b1-2)Man(a1-6)]Man(b1-4)GlcNAc(b1-4)GlcNAc
# Procedure, shortened: as §1
# [6] = biological target: Gal(b1-4)GlcNAc(b1-2)[Gal(b1-4)GlcNAc(b1-4)]Man(a1-3)[GlcNAc(b1-4)][Gal(b1-4)GlcNAc(b1-2)[Gal(b1-4)GlcNAc(b1-6)]Man(a1-6)]Man(b1-4)GlcNAc(b1-4)GlcNAc
# Procedure, shortened: as §1
# [7] = biological target: Gal(b1-4)GlcNAc(b1-2)[Gal(b1-4)GlcNAc(b1-6)]Man(a1-6)[Gal(b1-4)GlcNAc(b1-2)Man(a1-3)]Man(b1-4)GlcNAc(b1-4)GlcNAc
# Procedure, shortened: as §1
# [8] = biological target: Gal(b1-4)GlcNAc(b1-2)[Gal(b1-4)GlcNAc(b1-6)]Man(a1-6)[Gal(b1-4)GlcNAc(b1-2)Man(a1-3)]Man(b1-4)GlcNAc(b1-4)[Fuc(a1-6)]GlcNAc
# Procedure, shortened: as §1
# [9] = biological target: Gal(b1-4)GlcNAc(b1-2)[Gal(b1-4)GlcNAc(b1-6)]Man(a1-6)[GlcNAc(b1-4)][Gal(b1-4)GlcNAc(b1-2)Man(a1-3)]Man(b1-4)GlcNAc(b1-4)GlcNAc
# Procedure, shortened: as §1
# [10] = biological target: Gal(b1-4)GlcNAc(b1-2)[Gal(b1-4)GlcNAc(b1-6)]Man(a1-6)[GlcNAc(b1-4)][Gal(b1-4)GlcNAc(b1-2)[Gal(b1-4)GlcNAc(b1-4)]Man(a1-3)]Man(b1-4)GlcNAc(b1-4)[Fuc(a1-6)]GlcNAc
# Procedure, shortened: as §1
# [11] = biological target: Gal(b1-4)GlcNAc(b1-3)Gal(b1-3)GalNAc
# Procedure, shortened: as §1
# [12] = biological target: Gal(b1-4)GlcNAc(b1-3)Gal(b1-3)GlcNAc
# Procedure, shortened: as §1
# [13] = biological target: Gal(b1-4)GlcNAc(b1-3)Gal(b1-4)Glc
# Procedure, shortened: as §1
# [14] = biological target: Gal(b1-4)GlcNAc(b1-3)Gal(b1-4)GlcNAc
# Procedure, shortened: as §1
# [15] = biological target: Gal(b1-4)GlcNAc(b1-3)Gal(b1-4)GlcNAc(b1-2)Man(a1-3)[Gal(b1-4)GlcNAc(b1-3)Gal(b1-4)GlcNAc(b1-2)Man(a1-6)]Man(b1-4)GlcNAc(b1-4)GlcNAc
# Procedure, shortened: as §1
# [16] = biological target: Gal(b1-4)GlcNAc(b1-3)Gal(b1-4)GlcNAc(b1-2)Man(a1-3)[Gal(b1-4)GlcNAc(b1-3)Gal(b1-4)GlcNAc(b1-2)Man(a1-6)]Man(b1-4)GlcNAc(b1-4)[Fuc(a1-6)]GlcNAc
# Procedure, shortened: as §1
# [17] = biological target: Gal(b1-4)GlcNAc(b1-3)Gal(b1-4)GlcNAc(b1-2)[Gal(b1-4)GlcNAc(b1-3)Gal(b1-4)GlcNAc(b1-6)]Man(a1-6)[Gal(b1-4)GlcNAc(b1-3)Gal(b1-4)GlcNAc(b1-2)Man(a1-3)]Man(b1-4)GlcNAc(b1-4)GlcNAc
# Procedure, shortened: as §1
# [18] = biological target: Gal(b1-4)GlcNAc(b1-3)Gal(b1-4)GlcNAc(b1-2)[Gal(b1-4)GlcNAc(b1-3)Gal(b1-4)GlcNAc(b1-6)]Man(a1-6)[Gal(b1-4)GlcNAc(b1-3)Gal(b1-4)GlcNAc(b1-2)Man(a1-3)]Man(b1-4)GlcNAc(b1-4)[Fuc(a1-6)]GlcNAc
# Procedure, shortened: as §1
# [19] = biological target: Gal(b1-4)GlcNAc(b1-3)Gal(b1-4)GlcNAc(b1-3)Gal(b1-4)GlcNAc
# Procedure, shortened: as §1
# [20] = biological target: Gal(b1-4)GlcNAc(b1-3)Gal(b1-4)GlcNAc(b1-3)Gal(b1-4)GlcNAc(b1-2)Man(a1-3)[Gal(b1-4)GlcNAc(b1-3)Gal(b1-4)GlcNAc(b1-3)Gal(b1-4)GlcNAc(b1-2)Man(a1-6)]Man(b1-4)GlcNAc(b1-4)GlcNAc
# Procedure, shortened: as §1
# [21] = biological target: Gal(b1-4)GlcNAc(b1-3)Gal(b1-4)GlcNAc(b1-3)Gal(b1-4)GlcNAc(b1-2)Man(a1-3)[Gal(b1-4)GlcNAc(b1-3)Gal(b1-4)GlcNAc(b1-3)Gal(b1-4)GlcNAc(b1-2)Man(a1-6)]Man(b1-4)GlcNAc(b1-4)[Fuc(a1-6)]GlcNAc
# Procedure, shortened: as §1
# [22] = biological target: Gal(b1-4)GlcNAc(b1-3)Gal(b1-4)GlcNAc(b1-3)Gal(b1-4)GlcNAc(b1-2)[Gal(b1-4)GlcNAc(b1-3)Gal(b1-4)GlcNAc(b1-3)Gal(b1-4)GlcNAc(b1-6)]Man(a1-6)[Gal(b1-4)GlcNAc(b1-3)Gal(b1-4)GlcNAc(b1-3)Gal(b1-4)GlcNAc(b1-2)Man(a1-3)]Man(b1-4)GlcNAc(b1-4)[Fuc(a1-6)]GlcNAc
# Procedure, shortened: as §1
binder,measurement,setting,value
B1,glycan array binding signal (z-score),[1],-0.288
same,glycan array binding signal (z-score),[2],-0.748
same,glycan array binding signal (z-score),[3],-0.616
same,glycan array binding signal (z-score),[4],-1.16
same,glycan array binding signal (z-score),[5],-0.296
same,glycan array binding signal (z-score),[6],-0.17
same,glycan array binding signal (z-score),[7],-0.741
same,glycan array binding signal (z-score),[8],-0.654
same,glycan array binding signal (z-score),[9],-0.657
same,glycan array binding signal (z-score),[10],-0.759
same,glycan array binding signal (z-score),[11],-0.589
same,glycan array binding signal (z-score),[12],-0.56
same,glycan array binding signal (z-score),[13],-0.542
same,glycan array binding signal (z-score),[14],-0.757
same,glycan array binding signal (z-score),[15],0.247
same,glycan array binding signal (z-score),[16],0.402
same,glycan array binding signal (z-score),[17],1.88
same,glycan array binding signal (z-score),[18],-0.474
same,glycan array binding signal (z-score),[19],-0.647
same,glycan array binding signal (z-score),[20],0.706
same,glycan array binding signal (z-score),[21],2.98
same,glycan array binding signal (z-score),[22],-0.225

# Retrieved one by one from the list above:
binder,measurement,setting,value
B1,glycan array binding signal (z-score),[16],0.402
same,glycan array binding signal (z-score),[17],1.88
